Literature values, collected in PMC12705613 (Frontiers in Microbiology, 2025).

Conditions: ref Zhou et al., 2023; cited from earlier work

Compound: COC(=O)C1=C(C)NC(C)=C(C(=O)OC)C1c1ccccc1[N+](=O)[O-] [nifedipine]
- Bioavailability in SHRs vs Wistar rats: lower
